Measured values taken from article PMC12248476.
No constants are given. Whether binding was seen depends on the method and setting. In cells and extracts the contact can be indirect. Some entries that bind do so weakly or less than the wild type. For some of these results: Sequences can lack the tags named with a protein. Blank lines part the entries; values can stand above or below the molecule they belong to.

The chains behind the UniProt entries cited, without tags or fusion partners.
UniProt Q16665: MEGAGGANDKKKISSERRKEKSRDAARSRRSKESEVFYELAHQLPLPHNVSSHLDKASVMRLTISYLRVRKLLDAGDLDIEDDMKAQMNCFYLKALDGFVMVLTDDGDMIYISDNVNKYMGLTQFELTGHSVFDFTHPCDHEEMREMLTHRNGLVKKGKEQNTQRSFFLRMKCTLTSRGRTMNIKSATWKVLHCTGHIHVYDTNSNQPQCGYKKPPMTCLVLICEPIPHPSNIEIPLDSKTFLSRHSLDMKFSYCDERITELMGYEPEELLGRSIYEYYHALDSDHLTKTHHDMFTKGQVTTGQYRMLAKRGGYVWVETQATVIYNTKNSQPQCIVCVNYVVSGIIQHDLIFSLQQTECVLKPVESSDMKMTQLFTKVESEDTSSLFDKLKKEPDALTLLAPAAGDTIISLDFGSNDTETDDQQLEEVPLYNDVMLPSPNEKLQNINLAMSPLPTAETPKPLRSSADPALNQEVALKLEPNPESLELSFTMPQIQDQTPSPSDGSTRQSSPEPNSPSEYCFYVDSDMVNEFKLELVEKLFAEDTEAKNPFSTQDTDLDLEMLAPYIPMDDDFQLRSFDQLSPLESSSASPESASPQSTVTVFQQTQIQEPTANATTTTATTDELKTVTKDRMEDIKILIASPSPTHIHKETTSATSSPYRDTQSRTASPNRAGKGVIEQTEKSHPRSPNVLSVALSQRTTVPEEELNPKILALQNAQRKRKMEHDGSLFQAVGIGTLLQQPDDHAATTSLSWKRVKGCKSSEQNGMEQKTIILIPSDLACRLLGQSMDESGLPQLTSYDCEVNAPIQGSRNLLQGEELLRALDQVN
UniProt Q96KS0: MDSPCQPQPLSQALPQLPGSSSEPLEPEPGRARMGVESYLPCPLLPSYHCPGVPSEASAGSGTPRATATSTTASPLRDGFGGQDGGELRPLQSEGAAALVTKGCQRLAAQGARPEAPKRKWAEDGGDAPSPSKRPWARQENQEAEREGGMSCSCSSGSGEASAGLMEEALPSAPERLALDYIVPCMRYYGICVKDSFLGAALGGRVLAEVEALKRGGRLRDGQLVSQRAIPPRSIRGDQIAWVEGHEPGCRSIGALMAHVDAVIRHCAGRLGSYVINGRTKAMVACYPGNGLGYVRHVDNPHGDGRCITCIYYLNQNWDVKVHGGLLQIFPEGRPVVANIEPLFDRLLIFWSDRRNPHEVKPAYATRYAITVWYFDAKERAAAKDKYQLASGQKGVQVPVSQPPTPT
UniProt Q9GZT9: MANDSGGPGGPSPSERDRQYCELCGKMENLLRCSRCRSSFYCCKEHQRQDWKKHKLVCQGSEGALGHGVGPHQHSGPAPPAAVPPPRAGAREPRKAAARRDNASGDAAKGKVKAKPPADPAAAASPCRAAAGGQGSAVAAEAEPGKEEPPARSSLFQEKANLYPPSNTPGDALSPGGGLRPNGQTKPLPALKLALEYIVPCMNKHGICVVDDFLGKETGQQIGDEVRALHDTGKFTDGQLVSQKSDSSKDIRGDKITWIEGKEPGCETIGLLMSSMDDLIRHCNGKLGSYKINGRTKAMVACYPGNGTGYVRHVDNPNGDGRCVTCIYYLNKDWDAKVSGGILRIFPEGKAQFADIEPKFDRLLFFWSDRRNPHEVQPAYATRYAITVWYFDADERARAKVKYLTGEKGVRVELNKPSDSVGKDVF

Assays:
V5-tagged FOXA1 (human) = target: T1, V5-tagged FOXA1 (human) (UniProt P55317); test: co-IP; HEK293T cells transiently co-transfected with Myc-HIF1α and V5-FOXA1 for 48 h; IP with anti-Myc and blot with anti-V5, and reciprocal IP with anti-V5; IP lysis buffer with 150 mM NaCl, 1% NP-40; Dynabeads Protein G, 4 °C
T1 sequence: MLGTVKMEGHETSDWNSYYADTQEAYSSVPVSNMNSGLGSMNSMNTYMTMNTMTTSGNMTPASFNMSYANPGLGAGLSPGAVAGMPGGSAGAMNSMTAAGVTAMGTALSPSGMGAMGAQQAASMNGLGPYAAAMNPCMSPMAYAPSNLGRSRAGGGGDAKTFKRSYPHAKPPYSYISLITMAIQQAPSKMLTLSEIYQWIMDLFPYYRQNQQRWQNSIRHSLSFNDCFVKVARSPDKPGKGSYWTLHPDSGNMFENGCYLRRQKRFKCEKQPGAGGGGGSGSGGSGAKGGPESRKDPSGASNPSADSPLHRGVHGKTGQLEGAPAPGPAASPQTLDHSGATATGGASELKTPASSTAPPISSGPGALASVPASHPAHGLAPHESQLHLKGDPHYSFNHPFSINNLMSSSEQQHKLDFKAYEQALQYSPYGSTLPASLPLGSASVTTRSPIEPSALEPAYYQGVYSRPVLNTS

[1] = target: T2, endogenous FOXA1 (human (endogenous in LNCaP 1F5)) (UniProt P55317); test: co-IP; endogenous proteins in LNCaP 1F5 cells pre-treated with MG132; IP with anti-HIF1α or anti-FOXA1, western blot; also normoxia against hypoxia (1% O2, 24 h), interaction markedly enhanced under hypoxia
T2 sequence: T1 sequence

HA-tagged HIF1α = HA-tagged HIF1α (UniProt Q16665); test: co-IP; HEK293T cells co-expressing HA-HIF1α with V5-FOXA1 full length or truncation mutants (NTD, FH, CTD); precipitating antibody not told in the text (Figure S2C)
Myc-tagged HIF1α = Myc-tagged HIF1α (UniProt Q16665); test: co-IP; HEK293T cells transiently co-transfected with Myc-HIF1α and V5-FOXA1 for 48 h; IP with anti-Myc and blot with anti-V5, and reciprocal IP with anti-V5; IP lysis buffer with 150 mM NaCl, 1% NP-40; Dynabeads Protein G, 4 °C
[2] = target: endogenous HIF1α (human (endogenous in LNCaP 1F5)) (UniProt Q16665); test: co-IP; endogenous proteins in LNCaP 1F5 cells pre-treated with MG132; IP with anti-HIF1α or anti-FOXA1, western blot; also normoxia against hypoxia (1% O2, 24 h), interaction markedly enhanced under hypoxia
V5-tagged PHD1 = V5-tagged PHD1 (UniProt Q96KS0); test: co-IP; HEK293T cells co-transfected with Flag-FOXA1 and V5-PHD1, PHD2 or PHD3; IP with anti-V5, blot with anti-Flag
V5-tagged PHD2 = V5-tagged PHD2 (UniProt Q9GZT9); test: as above

Molecule: Myc-tagged HIF1α (from UniProt Q16665 1-826)
binding (V5-tagged FOXA1 (human)): binds

B1: V5-tagged FOXA1 (protein, UniProt P55317 1-472)
chain: T1 sequence
binding (HA-tagged HIF1α): binds
binding (Myc-tagged HIF1α): binds

B3: Flag-tagged FOXA1 (protein, UniProt P55317 1-472)
chain: T1 sequence
binding (V5-tagged PHD1): binds
binding (V5-tagged PHD2): no binding

Now from value to molecule:

binding [1]: binds
Molecule: endogenous HIF1α (from UniProt Q16665 1-826)

binding [2]: binds
B2: endogenous FOXA1 (protein, UniProt P55317 1-472)
chain: T1 sequence
